From patent US12102619B2 (Jazz Pharmaceuticals Research UK Limited, priority 2020, dated 2024)

Assay: Solubility of the CBD drug substance in water
Type: physicochemical
Description: Sesame oil was selected as an excipient to solubilize the drug substance. A sweetener and fruit flavoring are required to improve palatability of the sesame oil solution. Ethanol was required to solubilize the sweetener and the flavoring. The composition can be substantially equivalent, by which is meant that the function ingredients can vary from the qualitative composition specified in Table 6 by an amount up to 10%.

In the case of `C=C(C)[C@@H]1CCC(C)=C[C@H]1c1c(O)cc(CCCCC)cc1O` [CBD, Cannabidiol], the Solubility in water is reported as “insoluble in water”.
